Source: PubChem BioAssay AID504764 (Drosophila RNAi Screening Center, 2011)
Purpose: 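Genome-wide screen for regulators of Notch-driven gene expression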 (primary screen). System: Drosophila Kc167 cells. Reagent: long dsRNA against Drosophila genes. Timing: about 5 days (4 days dsRNA, then 24 h after transfection). Conditions: transfection of constitutively active membrane-tethered Notch lacking the extracellular domain, read 24 h later. Measurement: 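Light from a Notch-responsive E(spl)m3 luciferase reporter under active Notch, with control-promoter and no-Notch reporter wells to normalise; raw counts from paired wells a and b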. Reading the numbers: induced reporter light, run 1, well a and induced reporter light, run 1, well b: higher = more light from the Notch target reporter with active Notch; control promoter light, run 1, well a and control promoter light, run 1, well b: higher = more light from the viral control promoter (cell number, transfection, viability); uninduced reporter light, run 1, well a: higher = more light from the Notch target reporter without active Notch. Active means: 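Hit if the duplicate-averaged log2 ratio of induced to control-promoter light gives a plate-wise z beyond ±2, or induced to uninduced beyond ±1.8; weak-control or discordant-duplicate wells dropped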. Calls: active = modifier hit (raised or lowered Notch signal); inactive = not a hit.
The screen tested about 22,000 reagents; shown is a random part of those that have a named target and a result. In the full data, 403 (1.9%) were called active. 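Unnormalised raw counts per well; ratio z-scores behind the hit calls and whether each hit raises or lowers signal are not deposited.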 Entries without a mark were called inactive. No sequences are given here. The record does not give: the amount of reagent.

induced reporter light, run 1, well a	induced reporter light, run 1, well b	control promoter light, run 1, well a	control promoter light, run 1, well b	uninduced reporter light, run 1, well a	gene	amplicon
2.16e5	2.05e5	3.60e5	3.07e5	14610	cort	DRSC02148
1.84e5	1.52e5	2.90e5	2.28e5	14632	sov	DRSC17930
1.72e5	1.41e5	2.03e5	2.12e5	12460	CG13930	DRSC08399
2.11e5	2.16e5	1.99e5	1.99e5	15985	Lip3	DRSC16727
77290	81095	74815	58515	4670	GstD4	DRSC16685
67390	91355	94825	58080	4265	CG18748	DRSC15385
70695	96690	80910	73075	5945	nod	DRSC18900
2.23e5	1.82e5	2.53e5	2.13e5	14055	nod	DRSC20356
2.03e5	2.05e5	1.72e5	1.71e5	14390	CG10428	DRSC02054
1.25e5	1.02e5	1.30e5	1.29e5	9455	csul	DRSC07599
82415	55215	61590	65460	2515	CG13085	DRSC02189
1.24e5	1.33e5	1.85e5	2.03e5	9665	CG11369	DRSC17779
2.07e5	2.00e5	2.19e5	2.30e5	15240	Ythdf	DRSC16036
1.54e5	1.94e5	2.77e5	2.47e5	14205	Ythdf	DRSC16037
2.34e5	1.57e5	1.74e5	1.60e5	14438	wal	DRSC07717
1.20e5 (active)	1.28e5	1.78e5	1.97e5	9088	CG31741	DRSC02887
1.93e5	2.38e5	2.83e5	2.58e5	16005	cDIP	DRSC14267
1.49e5	1.35e5	1.87e5	3.09e5	10915	nyo	DRSC15029
1.03e5	1.10e5	1.93e5	1.89e5	8850	nyo	DRSC15030
72685	96265	1.05e5	61735	5740	dj	DRSC12625
1.71e5	1.69e5	92255	1.40e5	21335	CG4658	DRSC02768
82145	95820	97605	99500	7432	pncr004:X (retired record)	DRSC19295
2.12e5	2.42e5	2.14e5	2.15e5	17345	Stoml2	DRSC04326
57230	61375	1.10e5	1.06e5	5075	prage	DRSC17957
42735	66560	17942	24470	6465	prage	DRSC17958
1.02e5	1.10e5	1.69e5	1.90e5	7632	prage	DRSC18490
1.07e5	1.17e5	1.65e5	1.69e5	8545	prage	DRSC18497
1.69e5	1.68e5	2.46e5	2.18e5	11975	CG6296	DRSC16013
1.07e5	82285	77230	53085	6460	Obp83g	DRSC12269
90960	75405	68945	49620	4535	Or85f	DRSC16769
1.01e5	1.08e5	1.60e5	1.55e5	7870	Vhl	DRSC07716
1.29e5	99095	1.72e5	2.12e5	8735	CG12640	DRSC17847
2.20e5	2.11e5	1.65e5	1.76e5	14078	Synj	DRSC04526
1.23e5	1.12e5	1.08e5	52490	8060	Ser12	DRSC00786

3 entries already listed, sorted by “control promoter light, run 1, well a”, ascending.
induced reporter light, run 1, well a	induced reporter light, run 1, well b	control promoter light, run 1, well a	control promoter light, run 1, well b	uninduced reporter light, run 1, well a	gene	amplicon
1.07e5	1.17e5	1.65e5	1.69e5	8545	prage	DRSC18497
1.02e5	1.10e5	1.69e5	1.90e5	7632	prage	DRSC18490
1.69e5	1.68e5	2.46e5	2.18e5	11975	CG6296	DRSC16013
